In PubChem BioAssay AID504834 (National Center for Advancing Translational Sciences (NCATS), 2011):
The campaign covered roughly 320,000 compounds. About 22,000 (6.9%) were called active. The inconclusive results got no clear call from the source; some entries with a clear call stand among them for comparison. Calls follow the shape of the dose curve; as a rule, active = well fitted inhibition curve with a large enough effect; inconclusive = small, poorly fitted or top-dose-only effect, or another doubt; inactive = no such curve, though single readings can be large or run the other way. Potencies of inconclusive entries are doubtful fits and often do not repeat.
% is scaled to controls: 0 for no effect and ±100 for the full control effect; potency is read from the fitted curve at half-maximal effect.

Assay: Primary qHTS for delayed death inhibitors of the malarial parasite plastid, 96 hour incubation
Details: P. falciparum luciferase reporter growth; series mostly up to 28.7 µM; activity change, negative = inhibition: at the top concentration
Procedure, shortened: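 Parasite growth measured via integrated firefly luciferase reporter in P. falciparum. Infected erythrocytes at 2% hematocrit, 0.05% parasitemia final were treated 96 hours at 37 C under 5% CO2, and luminescence was read.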
In the case of `C/C(=N\Nc1nc(C)cc(=O)[nH]1)C1CC1`, the “activity change, negative = inhibition” value was inactive: 29.8%.
For `CCOc1ccc(CN2CCC(n3nccc3NC(=O)C3CC3)CC2)cc1CO`, the “activity change, negative = inhibition” value was inactive: -0.811%.
For `O=C(c1cccc(S(=O)(=O)N2CCOCC2)c1)N(Cc1ccco1)Cc1cccs1`, the Potency was inconclusive: 8.28 µM [inhibitor, partial curve, poor fit].
For `CC1CC(C)CN(S(=O)(=O)N2CCCC(C(=O)NC(C)c3ccccc3)C2)C1` (centres undefined), the Potency was inconclusive: 13.1 µM [inhibitor, partial curve, poor fit].
For `COc1ccc(S(=O)(=O)N2CCC(C(=O)NCCC(=O)NCc3ccccc3OC)CC2)cc1`, the Potency was inconclusive: 10.4 µM [inhibitor, single point].
With `CC1=NN(c2ccc(C(=O)OC(C)C)cc2)C(=O)/C1=C\C=C\c1ccco1` the Potency was inconclusive: 10.4 µM [inhibitor, single point].
For `CN1N=C(C(=O)N2CCCC(C(=O)c3cccc(C(F)(F)F)c3)C2)CCC1=O` (centres undefined), the Potency was inconclusive: 13.1 µM [inhibitor, single point].
With `Cn1nnnc1Sc1ncnc2scc(-c3ccccc3C(F)(F)F)c12` the Potency was active: 7.38 µM.
For `COC(=O)c1c(-c2ccccc2)csc1NC(=O)C1CC=CCC1C(=O)O` (centres undefined), the Potency was inconclusive: 2.62 µM [inhibitor, full curve].
With `COc1ccc(S(=O)(=O)Nc2cc(C)ccn2)cc1` the “activity change, negative = inhibition” value was inactive: 12.6%.
For `NC(=O)C1CCCN(C(=O)c2ccc3c(c2)NC(=O)CS3)C1` (centres undefined), the Potency was inconclusive: 13.1 µM [inhibitor, single point].
With `CCC[C@H]1C[C@H](C(=O)N[C@@H]([C@H]2O[C@@H](SC)[C@@H](O)[C@@H](O)[C@@H]2O)[C@H](C)Cl)N(C)C1` the Potency was active: 0.0338 µM.
With `CCOc1ccccc1NC(=O)CSc1nnc(-c2ccccn2)n1Cc1ccco1` the Potency was active: 3.7 µM.
In the case of `CCOc1ccc2nc(SC3CC(=O)N(c4cccc(OC)c4)C3=O)sc2c1` (centres undefined), the Potency was inconclusive: 4.15 µM [inhibitor, single point].
For `Cc1ccc(S(=O)(=O)N(CC(=O)NCc2ccc(F)cc2)C(=O)N2CCN(C)CC2)cc1`, the “activity change, negative = inhibition” value was inactive: 24.3%.
With `COc1ccc(CN(CC(=O)NCc2ccc(F)cc2)C(=O)c2ccco2)cc1` the Potency was inconclusive: 1.17 µM [inhibitor, full curve].
For `COc1ccc(C(C)(C)C)cc1NC(=O)c1cccc(S(=O)(=O)N2CCN(C(C)=O)CC2)c1`, the Potency was inconclusive: 2.08 µM [inhibitor, full curve].
For `O=C(COc1ccccc1Cl)NCCCN1CCOCC1`, the “activity change, negative = inhibition” value was inactive: -22.9%.
With `C/C=C/C=C/C(=O)[C@@H]1[C@@H]([C@]2(C)OC(=O)C(C)=C2O)[C@H]2/C(=C(O)/C=C/C=C/C)C(=O)[C@]1(C)C(=O)C2(C)O` (some centres undefined) the Potency was active: 7.38 µM.
For `Cc1cc(-n2c(C)cc(C(=O)COc3ccc([N+](=O)[O-])cc3)c2C)no1`, the Potency was inconclusive: 9.28 µM [inhibitor, partial curve, poor fit].
For `O=C(CSc1nnc(-c2ccccc2)c(-c2ccccc2)n1)Nc1ncc(Cl)cc1Cl`, the Potency was inconclusive: 18.5 µM [inhibitor, single point].
For `O=C(CCS(=O)(=O)c1ccccc1)Nc1nc2c(s1)CCCC2`, the Potency was inconclusive: 18.5 µM [inhibitor, single point].
In the case of `CC(C)c1ccc(CNC(=O)C2CC(=O)N(C3CCCCC3)C2)cc1` (centres undefined), the Potency was inconclusive: 18.5 µM [inhibitor, single point].
For `Cc1cc(C)c(C)c(S(=O)(=O)N2CCC(C(=O)NCC(c3ccccc3)N(C)C)CC2)c1C` (centres undefined), the “activity change, negative = inhibition” value was inactive: -28.3%.
With `Cc1cc(C)n(CCC(=O)N=Nc2c(O)[nH]c3ccc(Br)cc23)n1` the “activity change, negative = inhibition” value was inactive: 44.5%.
In the case of `COc1ccc(NC(=O)C2Cc3ccccc3CN2C(=O)c2ccccc2)cn1` (centres undefined), the Potency was inconclusive: 18.5 µM [inhibitor, single point].
With `O=C(N/N=C/c1ccc(Cl)cc1)C1CC12CCC2` (centres undefined) the “activity change, negative = inhibition” value was inactive: 43.9%.
In the case of `CC(=O)Nc1ccc(S(=O)(=O)Nc2ccc(C(=O)NCC(=O)O)cc2)cc1`, the “activity change, negative = inhibition” value was inactive: 36.6%.
For `Cc1ccccc1N(CC(=O)NCCc1ccccc1)C(=O)c1ccc(N2CCCC2)nc1`, the Potency was inconclusive: 4.15 µM [inhibitor, partial curve, poor fit].
With `COc1ccccc1NC(=O)c1c(C)nc2ccccc2c1C(=O)O` the “activity change, negative = inhibition” value was inactive: 4.16%.
For `O=C(c1ccc(F)cc1)C1CCN(C(=S)Nc2ccc(F)cc2)CC1`, the Potency was inconclusive: 14.7 µM [inhibitor, single point].
With `C=CCN1C(=O)/C(=c2\sc3nc(=O)c(Cc4ccccc4)nn3c2=O)c2ccccc21` the “activity change, negative = inhibition” value was inactive: -6.99%.
For `CC(C)CCCNc1nc(N2CCOCC2)nc(N2CCOCC2)n1`, the Potency was inconclusive: 20.8 µM [inhibitor, partial curve, poor fit].
In the case of `COc1ccccc1CNS(=O)(=O)c1ccc(-n2cnnn2)c(OC)c1`, the Potency was active: 9.28 µM.
In the case of `CCOC(=O)/C=C(\C)Nc1cc(C)nn1-c1ccccc1`, the Potency was inconclusive: 18.5 µM [inhibitor, single point].
In the case of `Cc1cccc(C(C)n2nnc3ccccc32)c1O` (centres undefined), the Potency was active: 10.4 µM.
For `O=[N+]([O-])c1ccc(CN2CCCCCC2)s1`, the Potency was inconclusive: 18.5 µM [inhibitor, single point].
In the case of `O=C(NC(=S)N1CCN(Cc2ccccc2)CC1)c1ccccc1`, the Potency was inconclusive: 14.7 µM [inhibitor, single point].
For `CCOc1ccc(S(=O)(=O)N(C)CC(=O)N2CCCC2)cc1`, the “activity change, negative = inhibition” value was inactive: 0%.
For `C=CCOC(=O)C1=C(C)NC(=S)NC1/C=C/c1ccccc1` (centres undefined), the Potency was inconclusive: 18.5 µM [inhibitor, single point].
With `COc1ccc(NC(=O)Cn2c3ccccc3c3nc4n(c(=O)c32)CCS4)cc1OC` the Potency was inconclusive: 9.28 µM [inhibitor, partial curve, poor fit].
With `CCCCn1c(N)c(N(CC)C(=O)C(c2ccccc2)c2ccccc2)c(=O)[nH]c1=O` the “activity change, negative = inhibition” value was inactive: -4.35%.
In the case of `CS(=O)(=O)Nc1ccc(C2=NN(C(=O)c3ccco3)C(c3cccc(F)c3)C2)cc1` (centres undefined), the Potency was inconclusive: 13.1 µM [inhibitor, single point].
For `Cc1ccc(C)c(S(=O)(=O)N2CCCOC2CNC(=O)C(=O)NCCCN2CCOCC2)c1` (centres undefined), the “activity change, negative = inhibition” value was inactive: 2.94%.
In the case of `CCc1cc2c(Nc3ccc(O)cc3)nc(C)nc2s1`, the “activity change, negative = inhibition” value was inactive: 70.2%.
For `Cc1ccc(NN2C(=O)C=CC2=O)cc1`, the Potency was inconclusive: 18.5 µM [inhibitor, single point].
In the case of `Cc1ccc(NS(=O)(=O)c2cccs2)c(C)c1`, the Potency was inconclusive: 4.15 µM [inhibitor, full curve, poor fit].
For `c1ccc(-c2nnc(N3CCOCC3)nc2-c2ccccc2)cc1`, the “activity change, negative = inhibition” value was inactive: -25%.
In the case of `CC(COc1cccc2ccccc12)CN1CCN(C)CC1` (centres undefined), the Potency was inconclusive: 0.522 µM [inhibitor, full curve, poor fit].
In the case of `COc1ccc(C[C@H]2CN3C(=NC[C@@H]3Cc3ccc(O)cc3)N2C[C@H](C)NC(=O)c2ccc(C)c(Br)c2)cc1`, the Potency was active: 0.828 µM.
In the case of `CCc1ccc(N2CC(C(=O)N3CCCC3)CC2=O)cc1` (centres undefined), the Potency was inconclusive: 11.7 µM [inhibitor, single point].
In the case of `O=C(COC(=O)c1cccc([N+](=O)[O-])c1)c1ccc(OCc2ccccc2)cc1`, the “activity change, negative = inhibition” value was inactive: 84.4%.
For `CCOc1ccc(S(=O)(=O)NCCC(=O)NC2CCCCC2)cc1`, the “activity change, negative = inhibition” value was inactive: 3.99%.
For `CCc1c(C(C)S(=O)(=O)c2ccc(C)cc2)[nH]c(=O)n1-c1ccc(OC(F)(F)F)cc1` (centres undefined), the Potency was inconclusive: 11.7 µM [inhibitor, single point].
In the case of `Cc1ccc(-n2ncc3c(SCC(N)=O)ncnc32)cc1C`, the Potency was inconclusive: 5.22 µM [inhibitor, single point].
In the case of `Cc1ccc(C)c(N2CCN(S(=O)(=O)c3ccc4c(c3)CCN4C(=O)CCC(=O)O)CC2)c1`, the Potency was inconclusive: 18.5 µM [inhibitor, single point].
In the case of `Cc1cccc(C)c1NC(=O)CSc1nnc(NC(=O)c2ccccc2C(=O)O)s1`, the Potency was inconclusive: 2.08 µM [inhibitor, single point].
With `O=C(OCc1ccc([N+](=O)[O-])cc1)c1cc([N+](=O)[O-])ccc1N1CCOCC1` the Potency was inconclusive: 18.5 µM [inhibitor, single point].
In the case of `CCSc1nnc(CNC(=O)C23CC4CC(CC(C4)C2)C3)n1Cc1ccccc1`, the Potency was inconclusive: 9.28 µM [inhibitor, single point].
For `Nc1ccccc1Sc1cc(Cl)nnc1Cl`, the Potency was inconclusive: 2.62 µM [inhibitor, full curve].
In the case of `O=C(Nc1ccccc1-c1nc2ccccc2s1)c1ccco1`, the “activity change, negative = inhibition” value was inactive: 3.91%.
In the case of `CCOC(=O)c1sc(NC(=O)C2CC2)cc1C`, the Potency was inconclusive: 10.4 µM [inhibitor, single point].
In the case of `COc1ccnc(CSC(N)=Nc2ccccc2OC)c1`, the Potency was inconclusive: 0.0033 µM [inhibitor, full curve, poor fit].
In the case of `O=C(NC(c1ccccc1)c1ccccc1)C1(c2cccs2)CCOCC1`, the Potency was inconclusive: 10.4 µM [inhibitor, single point].
In the case of `COc1ccc(C(C)=O)cc1CSc1ccc(S(=O)(=O)N2CCOCC2)cn1`, the Potency was inconclusive: 10.4 µM [inhibitor, single point].
In the case of `Cc1cccc(C2c3[nH]c4ccccc4c3CCN2C(=O)c2cc(CC(C)C)[nH]c(=O)n2)n1` (centres undefined), the Potency was inconclusive: 6.57 µM [inhibitor, partial curve].
In the case of `CCC(C)NC(=O)CSc1nc2ccsc2c(=O)n1NC(=O)c1ccccc1` (centres undefined), the Potency was active: 8.28 µM.
In the case of `CN(C(=O)c1cccs1)c1ccccc1C(=O)O`, the Potency was inconclusive: 8.28 µM [inhibitor, partial curve, poor fit].
